# Experimental data taken from publication PMC12043393.
# By UniProt entry, the sequences of proteins in these tests, tags left out.
# UniProt Q9Y5S8: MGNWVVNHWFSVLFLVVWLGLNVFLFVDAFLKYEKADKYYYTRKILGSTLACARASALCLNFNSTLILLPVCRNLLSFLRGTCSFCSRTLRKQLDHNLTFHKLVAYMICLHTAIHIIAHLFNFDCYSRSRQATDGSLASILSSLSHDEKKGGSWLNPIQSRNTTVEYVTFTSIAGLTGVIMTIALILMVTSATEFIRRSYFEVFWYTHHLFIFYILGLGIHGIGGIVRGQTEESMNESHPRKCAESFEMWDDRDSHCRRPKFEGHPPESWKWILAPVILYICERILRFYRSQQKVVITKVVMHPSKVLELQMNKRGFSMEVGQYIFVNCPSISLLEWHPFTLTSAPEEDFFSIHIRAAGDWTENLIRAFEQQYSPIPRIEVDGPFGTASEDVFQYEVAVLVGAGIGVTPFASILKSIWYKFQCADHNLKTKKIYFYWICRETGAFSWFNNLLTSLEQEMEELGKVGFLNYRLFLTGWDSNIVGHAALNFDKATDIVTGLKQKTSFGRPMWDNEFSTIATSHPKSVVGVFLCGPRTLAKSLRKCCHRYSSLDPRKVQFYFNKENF
# These are yes or no findings as the source states them, for the method shown. In cells and extracts the contact can be indirect. Some binding calls cover weakened binding; strength is not graded here.
# Biological target: T1, FBXO38 (human (endogenous in HUVECs)) (UniProt Q6PIJ6)
# T1 sequence: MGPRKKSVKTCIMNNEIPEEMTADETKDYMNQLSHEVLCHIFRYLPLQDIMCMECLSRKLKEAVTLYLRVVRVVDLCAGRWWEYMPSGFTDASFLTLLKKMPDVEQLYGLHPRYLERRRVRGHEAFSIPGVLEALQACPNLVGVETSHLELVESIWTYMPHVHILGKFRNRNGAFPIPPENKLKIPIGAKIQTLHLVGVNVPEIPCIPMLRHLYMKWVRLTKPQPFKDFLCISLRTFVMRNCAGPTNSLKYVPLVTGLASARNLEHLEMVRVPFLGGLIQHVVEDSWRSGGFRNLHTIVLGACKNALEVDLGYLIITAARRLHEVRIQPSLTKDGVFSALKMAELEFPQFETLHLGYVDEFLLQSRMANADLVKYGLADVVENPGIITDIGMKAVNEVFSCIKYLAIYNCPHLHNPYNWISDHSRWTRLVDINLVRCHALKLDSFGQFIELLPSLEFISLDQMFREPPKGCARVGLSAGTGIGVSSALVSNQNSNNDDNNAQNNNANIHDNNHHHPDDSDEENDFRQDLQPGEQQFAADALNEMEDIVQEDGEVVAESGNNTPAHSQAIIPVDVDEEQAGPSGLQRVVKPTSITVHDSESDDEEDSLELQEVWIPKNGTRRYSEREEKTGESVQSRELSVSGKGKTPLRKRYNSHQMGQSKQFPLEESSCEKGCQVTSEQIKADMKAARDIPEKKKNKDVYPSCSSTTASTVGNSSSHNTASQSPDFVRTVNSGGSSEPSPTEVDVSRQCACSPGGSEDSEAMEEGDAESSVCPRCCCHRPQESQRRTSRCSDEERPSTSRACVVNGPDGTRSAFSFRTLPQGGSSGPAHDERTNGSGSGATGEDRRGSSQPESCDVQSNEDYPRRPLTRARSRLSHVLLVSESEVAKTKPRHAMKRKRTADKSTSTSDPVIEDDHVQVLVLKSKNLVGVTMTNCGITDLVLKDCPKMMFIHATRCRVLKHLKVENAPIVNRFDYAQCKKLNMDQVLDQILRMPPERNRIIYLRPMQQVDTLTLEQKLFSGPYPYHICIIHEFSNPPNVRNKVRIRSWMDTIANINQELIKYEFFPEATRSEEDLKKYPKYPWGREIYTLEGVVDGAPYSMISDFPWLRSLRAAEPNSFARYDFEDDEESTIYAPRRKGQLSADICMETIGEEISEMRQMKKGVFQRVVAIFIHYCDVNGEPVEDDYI
# Test: co-IP; cells lysed in IP buffer with protease/phosphatase inhibitors; lysates immunoprecipitated overnight at 4°C with agarose-conjugated FBXO38 antibody or IgG control; Western blot
substance,measurement,value
Nox1 (from UniProt Q9Y5S8 1-564),binding,binds
